Results from publication PMC7819943, “Rice protein-binding microarrays: a tool to detect cis-acting elements near promoter regions in rice”.
This is one part of the list.

Amino acid sequences for entries named in this document (tags omitted).
UniProt Q0JBA9, entry or part of it: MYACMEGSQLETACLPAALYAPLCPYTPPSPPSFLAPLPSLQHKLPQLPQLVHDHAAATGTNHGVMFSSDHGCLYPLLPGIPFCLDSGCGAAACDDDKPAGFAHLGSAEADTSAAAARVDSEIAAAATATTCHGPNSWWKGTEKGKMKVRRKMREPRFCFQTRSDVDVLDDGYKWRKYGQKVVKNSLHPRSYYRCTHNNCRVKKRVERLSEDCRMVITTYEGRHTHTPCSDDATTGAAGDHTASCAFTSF

Molecular target: OsWRKY34 (Oryza sativa, UniProt Q0JBA9 1-250)
Experiment: protein-binding microarray (RPBM); PBS, 2% BSA, 51.3 ng/ul salmon testes DNA, 50 uM zinc acetate, 200 nM TF, 25 C, 1 h; high values mean tight binding
Conditions: protein: recombinant; tags: N-terminal polyhistidine and DsRed monomer fusion (pET32a); label: CyDye5-dUTP incorporated in the synthesized complementary strand; 3' TTTTT single-stranded linker to array surface; dsDNA, one strand shown
Summary of the method: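 For the binding signal, per-feature fluorescence intensity was read in arbitrary units on an Axon 4000B scanner. Before scanning, a 2% BSA-blocked custom Agilent array made double-stranded with Cy5-dUTP was washed after 1 h at 25 °C with 200 nM protein and 50 µM zinc acetate. The proteins were Ni–NTA-purified transcription factors with N-terminal polyhistidine and DsRed fusions, expressed in E. coli BL21-CodonPlus.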

Sequence	binding signal
ATTTTCTTTAAGAGATGTTCTTGTCTGTTGTCAGGTTTGTCGGAGTCACCTAGTGCAG	9670 fluorescence intensity (a.u.)
GAGGAAACATCTATCCCGGTCAAAGCCTGAGCATGTACACCGGAGTCACCTAGTGCAG	8210 fluorescence intensity (a.u.)
TCCGCCGCGTTTCGCACCACCACCACCGCCGCCGACCATGCGGAGTCACCTAGTGCAG	10000 fluorescence intensity (a.u.)
GTCCGGAACGTTATAACGATTCACGTTTGGCCCATTTTATCGGAGTCACCTAGTGCAG	10500 fluorescence intensity (a.u.)
GCCGCCGACGCCCTCCTCCTCTCCCACTTCGCACTGCCGGCGGAGTCACCTAGTGCAG	8350 fluorescence intensity (a.u.)
CCCTATAATTCACAACACATCTTAGACTGTGTTCTTTTCCCGGAGTCACCTAGTGCAG	9220 fluorescence intensity (a.u.)
CCACTTCCGACCTAAACCCTTCATATCCCACCACCGGAAACGGAGTCACCTAGTGCAG	9090 fluorescence intensity (a.u.)
GCCAATCCCTCCATGCCTTCTCGGGCTCATGGTGGAGGGGCGGAGTCACCTAGTGCAG	11000 fluorescence intensity (a.u.)
GTCTCATCGTCTGTCTCGCTCGGCGCTCGTCTTTCTCCCCCGGAGTCACCTAGTGCAG	9580 fluorescence intensity (a.u.)
TTTGTCGACCTACTGCTATTGGTACTTCTGCTGGCTGAACCGGAGTCACCTAGTGCAG	8860 fluorescence intensity (a.u.)
GAACCCTTCGCCGTCGCCGGCGATCCCACCGACTCCCGGCCGGAGTCACCTAGTGCAG	8520 fluorescence intensity (a.u.)
AGCCACTGATACCCACACCTATGGATTGCTGCCCCACTTTCGGAGTCACCTAGTGCAG	12000 fluorescence intensity (a.u.)
TATTTGCTGTTTTCGGTGATTCGGTCGTTTCGGCCGGATCCGGAGTCACCTAGTGCAG	9390 fluorescence intensity (a.u.)
GACTATAGAGGCTTTGTTTGTTTGGGGTGTGTTTTTGTCTCGGAGTCACCTAGTGCAG	17200 fluorescence intensity (a.u.)
TTTTACCCTTGGTGGTTTTAATTCGTTCATTTTTTCTATGCGGAGTCACCTAGTGCAG	8560 fluorescence intensity (a.u.)
TCTAATAGTAGTTGACTAAATCTCGGCAAGACCCACCACACGGAGTCACCTAGTGCAG	9550 fluorescence intensity (a.u.)
ACTGTATTTGGGCTGTGGGCCGTAGGCTGTCTCTTCTCAACGGAGTCACCTAGTGCAG	8260 fluorescence intensity (a.u.)
GAACTCGAACTCTTCTAGATAAGCTTCCTTTGATTGATCCCGGAGTCACCTAGTGCAG	8070 fluorescence intensity (a.u.)
GGCTCTCTAGCTCGGTCGATCATCCATGACGTCACTACAACGGAGTCACCTAGTGCAG	9630 fluorescence intensity (a.u.)
ACTCGTCTTGACCCATAGTCCCCTGCTCGTACTGCTTGCTCGGAGTCACCTAGTGCAG	8160 fluorescence intensity (a.u.)
CTATAAATCTCGCTCCATCAGCAAGCCAGCTCTCATCAACCGGAGTCACCTAGTGCAG	8650 fluorescence intensity (a.u.)

Sequence	binding signal
TCGCGTTCCGTTTCGTTGCGACGCCACGCGAGCCATGCTGCGGAGTCACCTAGTGCAG	8280 fluorescence intensity (a.u.)
AGCCCATTCATGAAACCTAATAGCTCGGATTCTGCCCCTACGGAGTCACCTAGTGCAG	8330 fluorescence intensity (a.u.)
TTCTTTTTTTTGCTCGTCTCTTCCTCATCCTCTCACCGCCCGGAGTCACCTAGTGCAG	8840 fluorescence intensity (a.u.)
CTGAACTCTCTCTCGCTCTCCGGCTCTCTGTATTCCTTCACGGAGTCACCTAGTGCAG	19800 fluorescence intensity (a.u.)
GCTTCCGGCTTCTAGTTCATTTTCTAAATTCTACAACTAACGGAGTCACCTAGTGCAG	9110 fluorescence intensity (a.u.)
ACCACTCACATGTACTGTCAGCATATCCTACGTTCTCTCCCGGAGTCACCTAGTGCAG	14500 fluorescence intensity (a.u.)
GACTCGTAGTCTTGCCCATGTTAAAATTTCTCGTGTCAATCGGAGTCACCTAGTGCAG	8610 fluorescence intensity (a.u.)
CGTGGTGGTGGTAGGGGAGGGGATGGATGATATGGCGTGACGGAGTCACCTAGTGCAG	22400 fluorescence intensity (a.u.)
CTGCTCCGTCCTCCATGATCAACTTTTTCCTGCGAGCTCGCGGAGTCACCTAGTGCAG	10400 fluorescence intensity (a.u.)
GCACTGTCAAATAATGCTCATCCTCGCCGAGCAATCATCACGGAGTCACCTAGTGCAG	8192 fluorescence intensity (a.u.)
ATTTTCTTGGTTTGGATTTCGCGGTGGTCGTGTGGTTTGCCGGAGTCACCTAGTGCAG	11000 fluorescence intensity (a.u.)
AGTTTAGTGGTTATTTGCCGTTTTCTCTTTTTTTCAATTTCGGAGTCACCTAGTGCAG	12700 fluorescence intensity (a.u.)
TTTTCCCGCGCTTTTTTTTCCTTCCCCACCCAGCTGCGCGCGGAGTCACCTAGTGCAG	9120 fluorescence intensity (a.u.)
TCGCCATCTCTCTCAGCTCTCACAGCTCACTGCATCAATGCGGAGTCACCTAGTGCAG	10600 fluorescence intensity (a.u.)
TTGTCGTTCGTCGACCTTCCTTCATTTTTGGTCAACACATCGGAGTCACCTAGTGCAG	8130 fluorescence intensity (a.u.)
GCGACCGATCTATCCCAATCACTTGGTTTAAGTATATATCCGGAGTCACCTAGTGCAG	10500 fluorescence intensity (a.u.)
TCCTGGCCACAGCAACCCACACATTCCTTGTACTTCTTCCCGGAGTCACCTAGTGCAG	8610 fluorescence intensity (a.u.)
GTCCTGCTTGTTGATGTCATCCTTCCAGAATTCGATGTCGCGGAGTCACCTAGTGCAG	10100 fluorescence intensity (a.u.)
TAGCTCACTCAATTACGGCTACTAGCTACTGTAGCTATACCGGAGTCACCTAGTGCAG	8640 fluorescence intensity (a.u.)
GGTATCCCTTCTCTCCATCTCTTTGCTCACACCTATTATCCGGAGTCACCTAGTGCAG	8880 fluorescence intensity (a.u.)
AATATGGTATGAGCATTATCCGTCCGTATCCGCTCCTTTTCGGAGTCACCTAGTGCAG	10900 fluorescence intensity (a.u.)

Sequence	binding signal
ACCACAGCCTCTCACCCTCACTATAAATAAGCCCATTAATCGGAGTCACCTAGTGCAG	9180 fluorescence intensity (a.u.)
TTTATTTTCCATTTTCTTCTCATTCTTCTTTTTTTCCTTTCGGAGTCACCTAGTGCAG	8620 fluorescence intensity (a.u.)
GTGAGCGTGTGTGAGTATGGTGTTACATGTTTAATAGTGTCGGAGTCACCTAGTGCAG	8180 fluorescence intensity (a.u.)
AGTTGTAGTTTAATTTATTTTTTTCGTTGCGAGATGTAAACGGAGTCACCTAGTGCAG	8730 fluorescence intensity (a.u.)
TCAAACACCCAAACCCTTAACCTCAGTATCCTCTTCTTCTCGGAGTCACCTAGTGCAG	8290 fluorescence intensity (a.u.)
CCTCGTTCGTTCGTCGCTGACGGCACATTATTATATCCTACGGAGTCACCTAGTGCAG	9320 fluorescence intensity (a.u.)
AAGAACGGTTACTTTTTTGCAATATTGTGGTTGCATTTATCGGAGTCACCTAGTGCAG	9930 fluorescence intensity (a.u.)
GGGGTGGGTTCTGAGGATTCGAGGCGGCAGGTCGCCTCCGCGGAGTCACCTAGTGCAG	13200 fluorescence intensity (a.u.)
GGATGGGCAGTGCTCGTCTTGACTTCTATGTATGCATTCTCGGAGTCACCTAGTGCAG	9170 fluorescence intensity (a.u.)
TCAGTTTTTTTTGCTAGTGAACAGGAGGTTGTTATTTTCACGGAGTCACCTAGTGCAG	9030 fluorescence intensity (a.u.)
AACATAACTGTCTTCTTCCATTTGTATGTCATGTTTCTGTCGGAGTCACCTAGTGCAG	10700 fluorescence intensity (a.u.)
AAATAAGACAAATGGTCAAACATGTGCTAAAAAGTCAACGCGGAGTCACCTAGTGCAG	14200 fluorescence intensity (a.u.)
TTCCACTCTAGTAATTCATACGCACAGTTCATGCTTTGTTCGGAGTCACCTAGTGCAG	9400 fluorescence intensity (a.u.)
CCCTTTCCTCGTCGTCGTCCACGCATGCCGTCCACCGGCGCGGAGTCACCTAGTGCAG	9820 fluorescence intensity (a.u.)
TTCGCCTTTGTTAGCCTTTGTTTCGCGCCTGTCGCCATTGCGGAGTCACCTAGTGCAG	8740 fluorescence intensity (a.u.)
GGGTGGGATTGGGATTGGGAAATGAATGAAGGGTTAGGATCGGAGTCACCTAGTGCAG	16400 fluorescence intensity (a.u.)
CGCTCCACCCGCCGCCTCCCACTCGCGCCGCTCGCCACATCGGAGTCACCTAGTGCAG	9660 fluorescence intensity (a.u.)
CTCCGAGCCGAGTCGAGTTGACTGGTCGGTCTATTCTCCTCGGAGTCACCTAGTGCAG	9430 fluorescence intensity (a.u.)
CTGCTGCATTATCTTTATATATTTTTTGATGAATTTTATCCGGAGTCACCTAGTGCAG	8890 fluorescence intensity (a.u.)
AGAGATGATGTGACTGAAAAGTTGTGTGTGTATGATAGGTCGGAGTCACCTAGTGCAG	8040 fluorescence intensity (a.u.)
ATTTTAATATTTGACGCCGTTGACTTTTTGTATGTTTGACCGGAGTCACCTAGTGCAG	42500 fluorescence intensity (a.u.)

Sequence	binding signal
GTGGATGTTGGAGATGTTCGGTAAAGGAGTCAAAGGAAATCGGAGTCACCTAGTGCAG	8630 fluorescence intensity (a.u.)
GTGTGTGTGTTTGTGTGACCTGGCCTTTGTATGAATGGAACGGAGTCACCTAGTGCAG	10600 fluorescence intensity (a.u.)
GTCGCCGTATATGTCATGTCCTTCGCCGGCGTCTCTTTCACGGAGTCACCTAGTGCAG	12000 fluorescence intensity (a.u.)
CGGAGGCATGGGGAGGCTGCTGCGGCGCCAATTGTGGCCACGGAGTCACCTAGTGCAG	8860 fluorescence intensity (a.u.)
CCGCCGCCGCCGCCGATCCCCATCCATCCCGCGAGCGAGCCGGAGTCACCTAGTGCAG	8160 fluorescence intensity (a.u.)
TAAGACACTTTATATAATACTCTCTCCATTTACTTTTGATCGGAGTCACCTAGTGCAG	8500 fluorescence intensity (a.u.)
AATACGTCCCATCAGGTTTTAGGTTGCTATATTATGAAGTCGGAGTCACCTAGTGCAG	8030 fluorescence intensity (a.u.)
TATATTTATAGTAGTTCTGTACGTAGTTTTTCTGTGTTTTCGGAGTCACCTAGTGCAG	9860 fluorescence intensity (a.u.)
AAGGCTAAGGGTGAATGCGTTTGGTAGAGGGGAGATTTTACGGAGTCACCTAGTGCAG	8730 fluorescence intensity (a.u.)
CCACTAATATGTCACTCAACATGTCTTAAGCAAGTTTTGACGGAGTCACCTAGTGCAG	8470 fluorescence intensity (a.u.)
GCAGTTTTGCACTATTCATGTTCAACGTTTGACCGTCCGTCGGAGTCACCTAGTGCAG	10400 fluorescence intensity (a.u.)
TCATGGCGGTACGTTTAATTTCTCCAATCACTTTTGTTTCCGGAGTCACCTAGTGCAG	9880 fluorescence intensity (a.u.)
CCCAGGTTCTCATCTCTCACTTTTGCTTCTTTGATTATAGCGGAGTCACCTAGTGCAG	8250 fluorescence intensity (a.u.)
TACTGTCAATTTGCGTCTCGCTATAAATATGTTTCTGCTTCGGAGTCACCTAGTGCAG	9010 fluorescence intensity (a.u.)
CTATGAAGTTAAAAATACGCTCATCAGAAAGGATATATTTCGGAGTCACCTAGTGCAG	57200 fluorescence intensity (a.u.)
AGATCAGATTCTGTACACAGTTCGTCTTCTTGCTCGGTGACGGAGTCACCTAGTGCAG	8420 fluorescence intensity (a.u.)
AGTGGGCGGCAGGGTCTATTTTTGTAATTTTTTTGGCCGACGGAGTCACCTAGTGCAG	9810 fluorescence intensity (a.u.)
CTCCTCGCTGCTGTTATATCCGCTTTCCTCTCCTCCTCCTCGGAGTCACCTAGTGCAG	10600 fluorescence intensity (a.u.)
TTCTGGGTCGTGATGGGTTGTTGTGGTGGCGTGAGCAGGTCGGAGTCACCTAGTGCAG	9060 fluorescence intensity (a.u.)
TATAATGATAGTACAGTTTGACGATTTTCTCTACTTCTGGCGGAGTCACCTAGTGCAG	8890 fluorescence intensity (a.u.)
CACGATGATTGTTGCTGCACCATAGTCTCCATGTGTGTACCGGAGTCACCTAGTGCAG	8410 fluorescence intensity (a.u.)

Retrieved one by one from the entries so far:
Sequence	binding signal
GTCGCCGTATATGTCATGTCCTTCGCCGGCGTCTCTTTCACGGAGTCACCTAGTGCAG	12000 fluorescence intensity (a.u.)
GTGTGTGTGTTTGTGTGACCTGGCCTTTGTATGAATGGAACGGAGTCACCTAGTGCAG	10600 fluorescence intensity (a.u.)
TCATGGCGGTACGTTTAATTTCTCCAATCACTTTTGTTTCCGGAGTCACCTAGTGCAG	9880 fluorescence intensity (a.u.)
AGATCAGATTCTGTACACAGTTCGTCTTCTTGCTCGGTGACGGAGTCACCTAGTGCAG	8420 fluorescence intensity (a.u.)
